Chains of the proteins cited; added tags and fusions are not shown. A change or cut given only in a name is not applied to a line headed by its entry. Chains listed by the source or under a name are the forms on record and can include a tag or linker.
UniProt P19793: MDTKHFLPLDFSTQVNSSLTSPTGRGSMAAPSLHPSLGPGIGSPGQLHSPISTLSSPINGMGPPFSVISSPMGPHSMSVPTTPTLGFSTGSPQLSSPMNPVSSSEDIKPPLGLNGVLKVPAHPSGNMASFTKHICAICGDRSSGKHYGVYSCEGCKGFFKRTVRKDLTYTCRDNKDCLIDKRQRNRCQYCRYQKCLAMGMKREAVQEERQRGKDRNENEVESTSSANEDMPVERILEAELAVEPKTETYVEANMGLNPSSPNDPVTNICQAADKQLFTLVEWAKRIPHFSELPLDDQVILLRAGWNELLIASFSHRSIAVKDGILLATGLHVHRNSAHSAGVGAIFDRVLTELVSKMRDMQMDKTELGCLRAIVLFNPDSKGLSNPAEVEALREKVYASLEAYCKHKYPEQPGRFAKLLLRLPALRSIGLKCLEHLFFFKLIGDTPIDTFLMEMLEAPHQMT
LXRα/RXRα heterodimer (Homo sapiens), one chain, as listed by the source: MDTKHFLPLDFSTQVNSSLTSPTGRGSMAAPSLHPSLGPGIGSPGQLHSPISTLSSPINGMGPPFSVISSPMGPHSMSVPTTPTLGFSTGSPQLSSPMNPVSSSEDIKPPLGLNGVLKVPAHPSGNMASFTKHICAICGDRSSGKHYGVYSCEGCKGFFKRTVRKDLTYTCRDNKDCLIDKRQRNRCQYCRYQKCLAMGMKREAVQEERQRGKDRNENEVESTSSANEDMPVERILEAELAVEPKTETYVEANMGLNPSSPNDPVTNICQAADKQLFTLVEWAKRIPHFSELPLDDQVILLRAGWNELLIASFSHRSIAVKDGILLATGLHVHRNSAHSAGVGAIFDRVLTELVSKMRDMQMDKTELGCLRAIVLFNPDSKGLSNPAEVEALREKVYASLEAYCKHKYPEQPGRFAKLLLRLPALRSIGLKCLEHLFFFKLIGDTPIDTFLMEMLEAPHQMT

According to patent US5747661:

Assays:
LXRα (Homo sapiens) = target: T1, LXRα (Homo sapiens) (UniProt Q13133); assay: EMSA; conditions: LXRα alone; protein translated in vitro; label: 32P
T1 sequence: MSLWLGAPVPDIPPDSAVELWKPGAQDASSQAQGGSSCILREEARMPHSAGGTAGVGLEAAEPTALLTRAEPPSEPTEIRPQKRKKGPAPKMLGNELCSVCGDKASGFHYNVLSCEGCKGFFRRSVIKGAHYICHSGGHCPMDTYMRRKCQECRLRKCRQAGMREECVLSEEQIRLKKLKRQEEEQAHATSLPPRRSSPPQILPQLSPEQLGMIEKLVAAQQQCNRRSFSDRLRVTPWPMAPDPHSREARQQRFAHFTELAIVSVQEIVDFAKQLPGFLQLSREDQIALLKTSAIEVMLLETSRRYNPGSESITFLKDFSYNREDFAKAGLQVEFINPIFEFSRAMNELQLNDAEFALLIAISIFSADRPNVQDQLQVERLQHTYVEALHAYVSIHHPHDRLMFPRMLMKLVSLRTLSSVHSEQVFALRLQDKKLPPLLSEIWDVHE

[1] = system: LXRα/RXRα heterodimer (Homo sapiens); assay: activity in cells; conditions: synergistic basal and methoprene acid response; CV-1 cells; protein in cells; only the site is given
RARα (Homo sapiens) = target: T2, RARα (Homo sapiens) (UniProt P10276); assay: activity in cells; conditions: no transactivation; protein in cells; only the site is given
T2 sequence (looked up, limits assumed): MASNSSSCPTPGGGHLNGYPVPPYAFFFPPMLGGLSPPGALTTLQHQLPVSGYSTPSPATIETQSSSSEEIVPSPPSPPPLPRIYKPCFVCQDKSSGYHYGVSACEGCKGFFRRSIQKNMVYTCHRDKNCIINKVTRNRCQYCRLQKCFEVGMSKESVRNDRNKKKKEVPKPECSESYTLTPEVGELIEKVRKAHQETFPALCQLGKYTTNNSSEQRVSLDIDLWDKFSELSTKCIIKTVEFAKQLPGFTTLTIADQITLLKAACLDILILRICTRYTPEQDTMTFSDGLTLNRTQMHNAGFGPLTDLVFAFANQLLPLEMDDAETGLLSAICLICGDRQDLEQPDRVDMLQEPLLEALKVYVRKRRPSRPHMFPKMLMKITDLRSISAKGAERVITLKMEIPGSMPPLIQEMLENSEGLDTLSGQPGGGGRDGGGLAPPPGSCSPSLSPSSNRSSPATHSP

RXRα (Homo sapiens) = RXRα (Homo sapiens) (UniProt P19793); assay: activity in cells; conditions: no transactivation; protein in cells; only the site is given

## CTTGCGGTTCCCAGGGTTTAAATAAGTTCA (double strand) [LXRE (ΔMTV)]
LXRα (Homo sapiens)
  binding result: no binding
[1]
  activity on this sequence: active
RARα (Homo sapiens)
  activity on this sequence: not active
RXRα (Homo sapiens)
  activity on this sequence: not active

For some of these results: No signal at the amounts used counts as a negative. For some of these results: Protein sequences can lack the tags named with them.
